Results reported in the supplement of paper PMC10849652.
Some of the results follow.

The chains behind the UniProt entries cited, without tags or fusion partners. Where a name states a change or a piece, a line headed by the entry shows the natural chain unless it says otherwise.
UniProt Q99986: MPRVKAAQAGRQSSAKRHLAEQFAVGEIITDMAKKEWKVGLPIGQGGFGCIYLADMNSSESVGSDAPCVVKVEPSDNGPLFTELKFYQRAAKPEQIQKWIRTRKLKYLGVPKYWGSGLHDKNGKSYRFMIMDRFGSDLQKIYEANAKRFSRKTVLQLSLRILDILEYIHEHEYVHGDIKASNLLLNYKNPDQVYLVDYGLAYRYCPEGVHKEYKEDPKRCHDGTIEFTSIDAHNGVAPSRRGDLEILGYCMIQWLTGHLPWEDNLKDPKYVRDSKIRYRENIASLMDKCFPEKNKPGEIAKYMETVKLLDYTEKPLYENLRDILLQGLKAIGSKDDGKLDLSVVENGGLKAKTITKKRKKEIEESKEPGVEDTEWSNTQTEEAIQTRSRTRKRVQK
UniProt Q6RFH5: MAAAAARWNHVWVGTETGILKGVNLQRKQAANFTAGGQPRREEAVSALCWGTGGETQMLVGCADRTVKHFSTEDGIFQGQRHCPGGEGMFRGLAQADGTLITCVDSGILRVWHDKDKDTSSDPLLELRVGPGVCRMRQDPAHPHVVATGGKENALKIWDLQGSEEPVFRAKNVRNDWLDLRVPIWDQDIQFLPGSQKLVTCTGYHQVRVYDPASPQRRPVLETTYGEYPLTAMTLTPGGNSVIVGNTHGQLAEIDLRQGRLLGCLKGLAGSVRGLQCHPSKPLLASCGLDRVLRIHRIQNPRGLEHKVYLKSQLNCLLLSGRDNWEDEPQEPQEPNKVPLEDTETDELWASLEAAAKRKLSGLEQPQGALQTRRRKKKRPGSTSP
UniProt Q9BUR4: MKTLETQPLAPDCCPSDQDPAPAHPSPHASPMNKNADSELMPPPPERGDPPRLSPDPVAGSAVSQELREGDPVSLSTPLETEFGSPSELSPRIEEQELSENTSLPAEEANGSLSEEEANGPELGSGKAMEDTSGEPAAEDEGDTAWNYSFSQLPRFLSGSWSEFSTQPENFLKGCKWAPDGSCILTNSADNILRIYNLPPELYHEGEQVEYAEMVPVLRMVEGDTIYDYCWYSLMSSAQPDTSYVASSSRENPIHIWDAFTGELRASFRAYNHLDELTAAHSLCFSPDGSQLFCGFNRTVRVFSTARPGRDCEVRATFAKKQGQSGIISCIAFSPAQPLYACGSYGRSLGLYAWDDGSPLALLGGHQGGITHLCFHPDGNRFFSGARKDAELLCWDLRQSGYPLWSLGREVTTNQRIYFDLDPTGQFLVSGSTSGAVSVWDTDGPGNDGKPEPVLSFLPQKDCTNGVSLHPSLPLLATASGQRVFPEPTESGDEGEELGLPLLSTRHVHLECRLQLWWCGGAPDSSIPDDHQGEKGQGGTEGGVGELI
UniProt P98170, whole entry, looked up: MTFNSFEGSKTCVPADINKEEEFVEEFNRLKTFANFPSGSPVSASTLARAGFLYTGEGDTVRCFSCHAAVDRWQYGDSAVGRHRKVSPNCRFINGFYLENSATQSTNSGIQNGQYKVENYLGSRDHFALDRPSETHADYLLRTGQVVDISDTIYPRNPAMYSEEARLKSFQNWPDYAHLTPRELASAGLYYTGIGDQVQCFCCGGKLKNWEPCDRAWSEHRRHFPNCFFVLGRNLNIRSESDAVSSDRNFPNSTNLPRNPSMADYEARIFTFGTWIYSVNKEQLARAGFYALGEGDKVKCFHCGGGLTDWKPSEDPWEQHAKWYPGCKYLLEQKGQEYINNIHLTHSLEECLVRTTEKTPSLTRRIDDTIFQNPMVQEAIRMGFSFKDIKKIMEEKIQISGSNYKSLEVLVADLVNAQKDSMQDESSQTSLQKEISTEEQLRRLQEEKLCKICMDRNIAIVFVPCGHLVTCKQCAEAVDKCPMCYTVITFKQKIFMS
UniProt Q9UK41: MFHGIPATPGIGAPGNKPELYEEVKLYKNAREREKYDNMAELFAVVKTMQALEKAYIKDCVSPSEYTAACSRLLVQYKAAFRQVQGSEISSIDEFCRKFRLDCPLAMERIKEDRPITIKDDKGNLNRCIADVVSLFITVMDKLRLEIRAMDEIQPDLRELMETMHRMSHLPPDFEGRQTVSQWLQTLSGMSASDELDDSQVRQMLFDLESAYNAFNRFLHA
UniProt Q9P1Q0: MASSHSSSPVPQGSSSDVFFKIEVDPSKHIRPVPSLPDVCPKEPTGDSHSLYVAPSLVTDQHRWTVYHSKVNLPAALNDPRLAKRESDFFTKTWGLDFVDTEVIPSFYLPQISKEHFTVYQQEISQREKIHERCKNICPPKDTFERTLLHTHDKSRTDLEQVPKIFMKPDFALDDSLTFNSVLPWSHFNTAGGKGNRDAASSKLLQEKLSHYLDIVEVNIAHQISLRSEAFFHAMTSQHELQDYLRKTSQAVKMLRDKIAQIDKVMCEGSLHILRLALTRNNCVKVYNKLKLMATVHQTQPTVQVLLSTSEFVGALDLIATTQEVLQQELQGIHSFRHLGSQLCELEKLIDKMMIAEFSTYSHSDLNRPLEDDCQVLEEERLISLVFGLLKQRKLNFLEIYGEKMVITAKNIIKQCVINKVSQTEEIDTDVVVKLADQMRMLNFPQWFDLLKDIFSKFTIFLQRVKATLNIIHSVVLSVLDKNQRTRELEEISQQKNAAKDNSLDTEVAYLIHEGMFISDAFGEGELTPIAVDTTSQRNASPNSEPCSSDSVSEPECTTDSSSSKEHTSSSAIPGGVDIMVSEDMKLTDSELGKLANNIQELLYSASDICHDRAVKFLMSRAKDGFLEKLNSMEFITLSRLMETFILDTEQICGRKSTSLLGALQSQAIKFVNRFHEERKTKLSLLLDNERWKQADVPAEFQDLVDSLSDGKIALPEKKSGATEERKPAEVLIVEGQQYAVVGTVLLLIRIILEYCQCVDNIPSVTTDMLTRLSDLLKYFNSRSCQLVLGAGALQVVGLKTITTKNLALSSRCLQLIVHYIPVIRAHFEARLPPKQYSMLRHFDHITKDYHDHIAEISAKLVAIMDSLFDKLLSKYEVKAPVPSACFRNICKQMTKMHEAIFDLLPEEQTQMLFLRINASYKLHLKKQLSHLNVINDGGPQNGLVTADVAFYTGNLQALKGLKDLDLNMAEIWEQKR
UniProt Q96JG6: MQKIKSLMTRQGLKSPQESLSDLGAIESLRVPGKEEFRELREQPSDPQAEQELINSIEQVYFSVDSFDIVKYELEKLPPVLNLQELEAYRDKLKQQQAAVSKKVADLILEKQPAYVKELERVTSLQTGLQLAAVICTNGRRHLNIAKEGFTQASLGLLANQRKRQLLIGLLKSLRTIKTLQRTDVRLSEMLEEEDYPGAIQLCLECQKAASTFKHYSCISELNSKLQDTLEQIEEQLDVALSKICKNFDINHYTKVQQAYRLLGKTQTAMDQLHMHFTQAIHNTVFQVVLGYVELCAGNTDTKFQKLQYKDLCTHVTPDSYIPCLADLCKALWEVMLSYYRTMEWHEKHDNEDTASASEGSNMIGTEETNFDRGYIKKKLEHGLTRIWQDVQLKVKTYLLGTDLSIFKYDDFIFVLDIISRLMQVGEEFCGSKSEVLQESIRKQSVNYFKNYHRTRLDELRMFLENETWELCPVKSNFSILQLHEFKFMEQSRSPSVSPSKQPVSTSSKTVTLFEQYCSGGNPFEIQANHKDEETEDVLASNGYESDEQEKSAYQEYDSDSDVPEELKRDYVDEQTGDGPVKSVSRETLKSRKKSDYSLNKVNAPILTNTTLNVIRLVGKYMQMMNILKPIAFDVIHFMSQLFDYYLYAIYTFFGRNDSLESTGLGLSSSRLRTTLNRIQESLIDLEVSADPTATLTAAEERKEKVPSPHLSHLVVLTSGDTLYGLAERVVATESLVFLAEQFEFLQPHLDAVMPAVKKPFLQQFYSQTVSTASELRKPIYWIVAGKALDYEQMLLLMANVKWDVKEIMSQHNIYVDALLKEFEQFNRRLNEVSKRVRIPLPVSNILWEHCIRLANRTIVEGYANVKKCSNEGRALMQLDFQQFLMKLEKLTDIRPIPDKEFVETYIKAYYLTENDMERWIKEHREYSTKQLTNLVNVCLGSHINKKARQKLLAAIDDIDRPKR
UniProt O75351, whole entry, looked up: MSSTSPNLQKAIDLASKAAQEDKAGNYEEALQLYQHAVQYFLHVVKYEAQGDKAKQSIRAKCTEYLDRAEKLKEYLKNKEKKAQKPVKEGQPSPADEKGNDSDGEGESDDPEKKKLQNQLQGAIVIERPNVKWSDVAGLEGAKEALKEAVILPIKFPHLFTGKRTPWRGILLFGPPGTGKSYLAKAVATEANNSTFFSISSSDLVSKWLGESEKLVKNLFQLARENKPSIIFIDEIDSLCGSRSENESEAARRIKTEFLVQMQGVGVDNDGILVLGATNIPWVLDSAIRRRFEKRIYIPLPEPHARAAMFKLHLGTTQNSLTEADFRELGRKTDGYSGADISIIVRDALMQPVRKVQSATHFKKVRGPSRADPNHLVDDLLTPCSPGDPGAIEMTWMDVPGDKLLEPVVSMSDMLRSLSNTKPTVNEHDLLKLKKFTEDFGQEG
UniProt Q6AWC2, whole entry, looked up: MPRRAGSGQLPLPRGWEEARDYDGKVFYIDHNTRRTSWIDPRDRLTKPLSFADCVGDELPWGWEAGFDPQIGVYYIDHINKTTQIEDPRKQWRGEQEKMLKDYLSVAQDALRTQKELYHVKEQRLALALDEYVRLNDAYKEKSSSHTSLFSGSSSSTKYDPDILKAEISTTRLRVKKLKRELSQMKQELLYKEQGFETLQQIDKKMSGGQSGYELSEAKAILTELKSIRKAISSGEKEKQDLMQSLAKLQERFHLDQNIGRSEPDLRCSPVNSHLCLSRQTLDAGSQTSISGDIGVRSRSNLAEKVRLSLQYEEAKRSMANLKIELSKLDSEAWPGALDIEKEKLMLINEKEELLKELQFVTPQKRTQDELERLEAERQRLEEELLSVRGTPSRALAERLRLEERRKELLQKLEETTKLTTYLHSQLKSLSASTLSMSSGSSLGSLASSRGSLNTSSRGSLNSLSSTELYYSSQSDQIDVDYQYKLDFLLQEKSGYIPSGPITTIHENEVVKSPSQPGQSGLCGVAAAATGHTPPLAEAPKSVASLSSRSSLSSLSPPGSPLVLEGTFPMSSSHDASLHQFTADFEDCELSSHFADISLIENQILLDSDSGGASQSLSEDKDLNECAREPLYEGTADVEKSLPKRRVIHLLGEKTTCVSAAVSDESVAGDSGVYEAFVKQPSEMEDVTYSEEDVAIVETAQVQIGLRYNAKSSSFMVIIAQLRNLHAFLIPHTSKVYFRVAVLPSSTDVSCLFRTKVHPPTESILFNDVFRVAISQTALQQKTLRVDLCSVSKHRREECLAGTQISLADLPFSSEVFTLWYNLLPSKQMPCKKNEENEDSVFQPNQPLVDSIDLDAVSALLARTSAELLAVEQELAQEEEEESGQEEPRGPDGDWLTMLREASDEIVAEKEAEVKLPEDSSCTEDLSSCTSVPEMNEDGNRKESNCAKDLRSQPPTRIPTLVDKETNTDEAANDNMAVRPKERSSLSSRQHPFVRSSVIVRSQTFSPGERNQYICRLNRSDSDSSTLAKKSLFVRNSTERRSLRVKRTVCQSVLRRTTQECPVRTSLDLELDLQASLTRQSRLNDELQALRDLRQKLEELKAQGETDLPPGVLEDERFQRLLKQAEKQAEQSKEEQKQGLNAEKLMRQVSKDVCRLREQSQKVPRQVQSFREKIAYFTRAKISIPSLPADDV
UniProt Q9P253: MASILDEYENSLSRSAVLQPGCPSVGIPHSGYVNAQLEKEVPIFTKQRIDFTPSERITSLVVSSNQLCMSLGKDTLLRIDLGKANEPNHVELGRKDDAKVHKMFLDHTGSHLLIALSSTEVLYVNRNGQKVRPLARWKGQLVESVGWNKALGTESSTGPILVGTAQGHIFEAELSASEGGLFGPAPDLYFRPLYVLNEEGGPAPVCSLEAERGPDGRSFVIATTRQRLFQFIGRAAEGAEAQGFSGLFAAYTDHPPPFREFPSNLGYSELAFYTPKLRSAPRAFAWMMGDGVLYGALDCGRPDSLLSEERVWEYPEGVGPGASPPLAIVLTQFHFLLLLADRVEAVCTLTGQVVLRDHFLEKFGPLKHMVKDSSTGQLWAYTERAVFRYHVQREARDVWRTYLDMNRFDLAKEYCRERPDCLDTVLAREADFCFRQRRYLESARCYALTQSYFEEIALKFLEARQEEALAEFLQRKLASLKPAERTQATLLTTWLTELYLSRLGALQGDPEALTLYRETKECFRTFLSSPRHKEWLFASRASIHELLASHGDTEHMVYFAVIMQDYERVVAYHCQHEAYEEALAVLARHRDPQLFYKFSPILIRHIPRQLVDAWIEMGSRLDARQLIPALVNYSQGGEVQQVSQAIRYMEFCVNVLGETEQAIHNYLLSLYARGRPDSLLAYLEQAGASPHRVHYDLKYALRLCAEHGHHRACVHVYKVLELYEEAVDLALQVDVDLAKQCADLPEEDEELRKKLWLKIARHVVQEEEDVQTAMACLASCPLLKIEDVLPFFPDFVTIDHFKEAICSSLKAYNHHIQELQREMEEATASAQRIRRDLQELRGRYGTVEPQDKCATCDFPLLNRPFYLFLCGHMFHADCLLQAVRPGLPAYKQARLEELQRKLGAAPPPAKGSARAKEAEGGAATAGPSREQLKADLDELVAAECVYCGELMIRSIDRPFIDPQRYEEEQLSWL

Experiments:
Experiment in all cases: log2 fold change, soluble protein after heating vs DMSO (PISA); higher = thermal stabilisation; K562 lysate, 10 uM; active = over 0.2 and 3.5 SD of the protein, either way, in both replicates (recomputed)
vemurafenib = compound: CCCS(=O)(=O)Nc1ccc(F)c(C(=O)c2c[nH]c3ncc(-c4ccc(Cl)cc4)cc23)c1F [vemurafenib]
How it was run: (§1)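 Thermal stability, expressed as log-two fold change relative to solvent controls, is given from duplicates. Crude K562 extract in PBS pH 7.4 with 1 mM MgCl2, at 1 mg/mL protein, was treated with 10 μM compound for 30 min and heated in aliquots for 3 min across 48°C-58°C. After pooling, adjustment to 0.5% NP-40 at 4°C and centrifugation at 21,000xg for 90 min, supernatant protein was measured by TMTpro 16plex LC-MS/MS with channel sums equalised.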

[1] = compound: CCCS(=O)(=O)Nc1ccc(F)c(C(=O)c2c[nH]c3ncc(Cl)cc23)c1F
How it was run: as §1

barasertib = compound: CCN(CCCOc1ccc2c(Nc3cc(CC(=O)Nc4cccc(F)c4)[nH]n3)ncnc2c1)CCOP(=O)(O)O [barasertib]
How it was run: as §1

[2] = compound: CC[C@@H]1C(=O)N(C)c2cnc(Nc3ccc(C(=O)NC4CCN(C)CC4)cc3OC)nc2N1C1CCCC1
How it was run: as §1

volasertib = compound: CC[C@@H]1C(=O)N(C)c2cnc(Nc3ccc(C(=O)N[C@H]4CC[C@H](N5CCN(CC6CC6)CC5)CC4)cc3OC)nc2N1C(C)C [volasertib]
How it was run: as §1

[3] = compound: CCn1c(C(=O)N(C2CC2)C2CC2)cc2c3c(ncn3C)c(Nc3cc(C)n(C)n3)nc21
How it was run: as §1

[4] = compound: CCn1cc(-c2ccnc3[nH]c(-c4cccc(CN(C)C)c4)cc23)c(-c2ccc(NC(=O)N(C)C)cc2)n1
How it was run: as §1

[5] = compound: CN1CCC(CNc2ccc3ncc(-c4cccc(OC(F)(F)F)c4)n3n2)CC1
How it was run: as §1

saracatinib = compound: CN1CCN(CCOc2cc(OC3CCOCC3)c3c(Nc4c(Cl)ccc5c4OCO5)ncnc3c2)CC1 [saracatinib]
How it was run: as §1

sotrastaurin = compound: CN1CCN(c2nc(C3=C(c4c[nH]c5ccccc45)C(=O)NC3=O)c3ccccc3n2)CC1 [sotrastaurin]
How it was run: as §1

| Target | log2 fold change (vemurafenib) | log2 fold change [1] | log2 fold change (barasertib) | log2 fold change [2] | log2 fold change (volasertib) | log2 fold change [3] | log2 fold change [4] | log2 fold change [5] | log2 fold change (saracatinib) | log2 fold change (sotrastaurin) |
| --- | --- | --- | --- | --- | --- | --- | --- | --- | --- | --- |
| VRK1 (UniProt Q99986) | inactive: 0.024 | inactive: 0.024 | inactive: -0.002 | inactive: -0.051 | inactive: -0.03 | inactive: 0 | inactive: -0.041 | inactive: 0.031 | inactive: 0.002 | inactive: 0.178 |
| VPS13B (UniProt Q7Z7G8) | inactive: 0.05 | inactive: 0.046 | inactive: -0.036 | inactive: 0.041 | inactive: -0.062 | inactive: 0.029 | inactive: 0.049 | inactive: 0.032 | inactive: 0 | inactive: 0.025 |
| VPS39 (UniProt Q96JC1) | inactive: -0.034 | inactive: 0.014 | inactive: 0.022 | inactive: -0.029 | inactive: -0.045 | inactive: 0.001 | active: 0.73 | inactive: -0.151 | inactive: 0.018 | inactive: -0.008 |
| VPS37C (UniProt A5D8V6) | inactive: -0.058 | inactive: -0.006 | inactive: 0.115 | inactive: 0.081 | inactive: -0.026 | inactive: -0.027 | inactive: 0.008 | inactive: -0.057 | inactive: 0.038 | inactive: 0.036 |
| WDR74 (UniProt Q6RFH5) | inactive: 0.02 | inactive: 0.026 | inactive: 0.034 | inactive: 0.082 | inactive: -0.004 | inactive: -0.113 | inactive: -0.037 | inactive: 0.006 | inactive: 0.077 | inactive: -0.016 |
| WDR46 (UniProt O15213) | inactive: 0.062 | inactive: 0.006 | inactive: -0.078 | inactive: 0.037 | inactive: 0 | inactive: -0.029 | inactive: -0.046 | inactive: 0 | inactive: 0.048 | inactive: 0.019 |
| WRAP53 (UniProt Q9BUR4) | inactive: 0.011 | inactive: 0.001 | inactive: -0.031 | inactive: -0.082 | inactive: 0.005 | inactive: -0.086 | inactive: -0.038 | inactive: 0.099 | inactive: 0.076 | inactive: -0.039 |
| XIAP (UniProt P98170) | inactive: -0.02 | inactive: -0.004 | inactive: 0.008 | inactive: 0.012 | inactive: -0.043 | inactive: -0.05 | inactive: -0.079 | inactive: 0.059 | inactive: -0.006 | inactive: -0.006 |
| XPA (UniProt P23025) | inactive: -0.008 | inactive: -0.057 | inactive: 0.453 | inactive: 0.118 | inactive: 0.116 | inactive: -0.151 | inactive: 0.086 | inactive: -0.095 | inactive: 0.012 | inactive: -0.07 |
| WDR37 isoform 2 (UniProt Q9Y2I8) | inactive: -0.02 | inactive: 0.026 | inactive: 0.028 | inactive: -0.025 | inactive: -0.04 | inactive: -0.021 | inactive: -0.019 | inactive: -0.072 | inactive: -0.026 | inactive: 0.014 |
| WDR11 (UniProt Q9BZH6) | inactive: 0.074 | inactive: -0.003 | inactive: 0.008 | inactive: -0.054 | inactive: 0 | inactive: -0.026 | inactive: -0.286 | inactive: 0.104 | inactive: 0.005 | inactive: 0 |
| WASHC4 (UniProt Q2M389) | inactive: 0.01 | inactive: 0.012 | inactive: 0.033 | inactive: -0.019 | inactive: -0.033 | inactive: 0.021 | inactive: -0.066 | inactive: -0.008 | inactive: -0.008 | inactive: -0.007 |
| VPS28 (UniProt Q9UK41) | inactive: -0.012 | inactive: 0.016 | inactive: 0.178 | inactive: -0.035 | inactive: -0.012 | inactive: 0.067 | inactive: -0.208 | inactive: 0.018 | inactive: 0.01 | inactive: -0.007 |
| VPS35 (UniProt Q96QK1) | inactive: -0.005 | inactive: -0.003 | inactive: 0.002 | inactive: -0.022 | inactive: -0.005 | inactive: -0.001 | inactive: 0.015 | inactive: -0.008 | inactive: 0.001 | inactive: -0.001 |
| VPS29 isoform 2 (UniProt Q9UBQ0) | inactive: -0.044 | inactive: 0.018 | inactive: 0.026 | inactive: -0.02 | inactive: 0.002 | inactive: -0.009 | inactive: 0.037 | inactive: 0.051 | inactive: 0 | inactive: -0.058 |
| WASHC2A (UniProt Q641Q2) | inactive: 0.007 | inactive: 0.015 | inactive: -0.022 | inactive: 0.066 | inactive: -0.001 | inactive: -0.011 | inactive: -0.013 | inactive: -0.008 | inactive: 0.039 | inactive: -0.007 |
| VPS54 (UniProt Q9P1Q0) | inactive: 0.046 | inactive: -0.015 | inactive: -0.042 | inactive: -0.037 | inactive: 0.068 | inactive: -0.259 | inactive: -0.278 | inactive: 0.141 | inactive: 0.05 | inactive: -0.087 |
| VPS50 (UniProt Q96JG6) | inactive: 0.003 | inactive: -0.014 | inactive: 0.043 | inactive: -0.017 | inactive: -0.006 | inactive: 0.028 | inactive: -0.023 | inactive: -0.023 | inactive: 0.018 | inactive: 0.018 |
| WRN (UniProt Q14191) | inactive: -0.032 | inactive: -0.065 | inactive: 0.026 | inactive: -0.032 | inactive: 0.007 | inactive: 0.053 | inactive: -0.052 | inactive: 0.022 | inactive: 0.008 | inactive: 0.031 |
| WDR47 (UniProt O94967) | inactive: 0.021 | inactive: 0.05 | inactive: 0.049 | inactive: 0.025 | inactive: -0.042 | inactive: 0.095 | inactive: -0.061 | inactive: 0 | inactive: 0.038 | inactive: 0.005 |
| WDR6 (UniProt Q9NNW5) | inactive: 0.008 | inactive: -0.007 | inactive: 0.013 | inactive: -0.006 | inactive: -0.029 | inactive: -0.009 | inactive: -0.053 | inactive: 0.033 | inactive: 0.01 | inactive: 0.116 |
| VPS45 (UniProt Q9NRW7) | inactive: 0.02 | inactive: 0.029 | inactive: 0.082 | inactive: -0.023 | inactive: -0.065 | inactive: -0.03 | inactive: 0.012 | inactive: -0.017 | inactive: 0.01 | inactive: 0.014 |
| WIPF2 (UniProt Q8TF74) | inactive: 0.009 | inactive: 0.034 | inactive: -0.04 | inactive: 0.058 | inactive: 0.019 | inactive: -0.014 | inactive: -0.098 | inactive: 0.051 | inactive: 0.038 | inactive: 0.063 |
| VPS4B (UniProt O75351) | inactive: 0.046 | inactive: 0.009 | inactive: 0.021 | inactive: -0.033 | inactive: -0.039 | inactive: 0.027 | inactive: 0.044 | inactive: -0.081 | inactive: 0.032 | inactive: 0.034 |
| WWC2 isoform 6 (UniProt Q6AWC2) | inactive: -0.024 | inactive: -0.035 | inactive: 0.002 | inactive: -0.168 | inactive: -0.065 | inactive: 0.033 | inactive: 0.049 | inactive: -0.026 | inactive: -0.014 | inactive: 0.022 |
| WASL (UniProt O00401) | inactive: -0.067 | inactive: -0.009 | inactive: -0.007 | inactive: -0.01 | inactive: -0.069 | inactive: -0.064 | inactive: 0.182 | inactive: -0.054 | inactive: -0.015 | inactive: 0.016 |
| WDR5 (UniProt P61964) | inactive: 0.008 | inactive: -0.003 | inactive: 0.046 | inactive: 0.012 | inactive: 0.037 | inactive: 0.005 | inactive: -0.092 | inactive: 0.093 | inactive: 0.037 | inactive: -0.089 |
| VPS18 (UniProt Q9P253) | inactive: 0.037 | inactive: 0.014 | inactive: 0 | inactive: 0 | inactive: -0.083 | inactive: 0.046 | inactive: -0.048 | inactive: -0.04 | inactive: -0.012 | inactive: 0.02 |
| WRB (UniProt O00258) | inactive: 0.086 | inactive: 0.077 | inactive: 0.098 | inactive: -0.011 | inactive: 0.015 | inactive: -0.148 | inactive: -0.176 | inactive: 0.068 | inactive: -0.147 | inactive: 0.013 |
| VPS4A (UniProt Q9UN37) | inactive: 0.096 | inactive: -0.006 | inactive: 0.014 | inactive: -0.063 | inactive: -0.09 | inactive: 0.054 | inactive: -0.12 | inactive: -0.036 | inactive: 0.027 | inactive: 0.056 |

At a glance, part of the list above.

| Target | log2 fold change (vemurafenib) | log2 fold change [1] | log2 fold change (barasertib) | log2 fold change [2] | log2 fold change (volasertib) | log2 fold change [3] | log2 fold change [4] | log2 fold change [5] | log2 fold change (saracatinib) | log2 fold change (sotrastaurin) |
| --- | --- | --- | --- | --- | --- | --- | --- | --- | --- | --- |
| VPS29 isoform 2 (UniProt Q9UBQ0) | inactive: -0.044 | inactive: 0.018 | inactive: 0.026 | inactive: -0.02 | inactive: 0.002 | inactive: -0.009 | inactive: 0.037 | inactive: 0.051 | inactive: 0 | inactive: -0.058 |
| WASHC2A (UniProt Q641Q2) | inactive: 0.007 | inactive: 0.015 | inactive: -0.022 | inactive: 0.066 | inactive: -0.001 | inactive: -0.011 | inactive: -0.013 | inactive: -0.008 | inactive: 0.039 | inactive: -0.007 |
